Laboratory results: patent US20250009931A1 (GEL4MED, INC., priority 2021, published 2025)
Some entries share one result that the patent states for a list of compounds.

Assay: Net charge and isoelectric point of peptide
Assay type: physicochemical
Details: pH 7
Description: The peptide may be purified. For example, the peptide may be lyophilized. […] Other peptides are within the scope of the disclosure.
Exemplary peptides having a charge of +5 to +9 include […](d)[…], […](d)[…], and […](d)[…]. In other embodiments, the purified peptide may be substantially neutral. […] Net charge may be selected by peptide design. Design of electrostatic charge in the peptide hydrogel may allow control of charge interaction with cell membrane and proteins.

VKVRVRVRVPPTRVRVRVKV (D-proline; MOD_RES 10 D-amino acid)
net charge: +5 to +9

VLTKVKTKVPPTKVEVKVLV (D-proline; MOD_RES 10 D-amino acid)
net charge: +5 to +9
